The values below come from paper PMC9849758, “Chemically diverse activity-based probes with unexpected inhibitory mechanisms targeting trypsin-like serine proteases” (Frontiers in Chemistry, 2023).

Amino acid sequences for entries named in this document (tags omitted). Residues count along the entry.
UniProt P08311, 21-255 limits assumed: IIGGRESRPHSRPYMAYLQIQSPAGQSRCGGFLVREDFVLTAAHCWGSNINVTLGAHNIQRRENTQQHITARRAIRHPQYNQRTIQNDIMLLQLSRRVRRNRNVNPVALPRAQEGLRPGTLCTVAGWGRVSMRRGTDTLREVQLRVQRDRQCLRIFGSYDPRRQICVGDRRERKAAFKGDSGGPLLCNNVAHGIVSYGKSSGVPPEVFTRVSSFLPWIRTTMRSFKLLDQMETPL
UniProt P20231, 31-275 limits assumed: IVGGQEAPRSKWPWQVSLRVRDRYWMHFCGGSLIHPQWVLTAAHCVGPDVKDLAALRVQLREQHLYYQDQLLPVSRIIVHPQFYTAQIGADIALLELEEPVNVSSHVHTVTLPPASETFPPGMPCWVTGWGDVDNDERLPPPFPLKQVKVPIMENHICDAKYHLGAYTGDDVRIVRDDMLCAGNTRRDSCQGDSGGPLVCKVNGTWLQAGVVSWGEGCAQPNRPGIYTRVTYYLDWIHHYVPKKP
UniProt P35030, whole entry: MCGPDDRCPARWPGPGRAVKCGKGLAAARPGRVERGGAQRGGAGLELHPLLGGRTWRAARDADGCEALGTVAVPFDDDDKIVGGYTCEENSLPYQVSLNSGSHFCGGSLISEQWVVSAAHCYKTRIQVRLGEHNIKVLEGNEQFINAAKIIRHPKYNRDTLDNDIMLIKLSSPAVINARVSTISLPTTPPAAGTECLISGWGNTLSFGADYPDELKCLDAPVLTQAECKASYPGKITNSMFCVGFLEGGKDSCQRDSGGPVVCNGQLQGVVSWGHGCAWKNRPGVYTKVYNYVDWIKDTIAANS

The structures given here were assigned with low confidence; some may be wrong.

In test [1] the target is Cathepsin G (cathepsin G human neutrophil) (Homo sapiens, UniProt P08311). Nature of the test: IC50 determination, spectrophotometric protease assay. The conditions noted are these: read-out: CatG IC50; desthiobiotin probes; 15 min preincubation at 37°C; mean ± SD; tested form: TFA. It counts as biochemical. The method, then: (§1) The IC50 value is defined as the concentration of inhibitor required to reduce the enzyme activity to 50% after a 15 min preincubation with the enzyme at 37°C before the addition of the substrate. The IC50 values were determined using a spectrophotometric assay. All the experiments were conducted in duplicate. The readout consisted of evaluating the protease-mediated release of the chromophore para-nitroaniline (pNA) or fluorophore 7-amino-4-methyl coumarin (AMC) moieties from the respective substrates. Enzymatic activity was measured for 30 min at 37°C. All compounds were initially screened at three concentrations (10, 1, and .1 μM) to estimate the range of the IC50 value. Those which were able to reduce protease activity by at least 50% at a concentration of 10 μM were submitted to an exact IC50 determination. […] A third independent experiment was performed when the standard deviation of the two independent experiments was higher than […]. IC50 values were obtained by fitting the data with the four-parameter logistics equation using GraphPad Prism 9.
(§2) The conditions for each protease are described as follows, the concentration of substrate used was at the corresponding Km.
(§3) Trypsin-3 (recombinant trypsin-3, R&D) and fluorogenic substrate tosyl-Gly-Pro-Arg-AMC (Km = 22.5 μM) were used in Tris buffer (100 mM Tris, 1 mM CaCl2) at pH 8.0 (25°C). Tryptase (recombinant tryptase β-2, EnzoLife Sciences) and fluorogenic substrate Boc-Gln-Ala-Arg-AMC (Km = 250 μM) were used in Tris buffer (50 mM Tris, 120 mM NaCl, .1 mg/ml BSA, .1 mg/ml heparin) at pH 8.0 (25°C). Thrombin (recombinant thrombin, R&D) and fluorogenic substrate Boc-Val-Pro-Arg-AMC (Km = 15 μM) were used in TRIS buffer (50 mM Tris HCl, 50 mM Tris base, 10 mM CaCl2, 150 mM NaCl) at pH 8.3 (25°C). uPA (recombinant urokinase plasminogen activator, HYPHEN BioMed) and chromogenic substrate pyro-Glu-Gly-Arg-pNA (Km = 80 μM) were used in HEPES buffer (50 mM HEPES) at pH 8.1 (25°C). Cathepsin G (cathepsin G human neutrophil, Sigma-Aldrich) and fluorogenic substrate Suc-Ala-Ala-Pro-Phe-AMC (Km = 130 μM) were used in Tris buffer (50 mM Tris, 120 mM NaCl) at pH 8.0 (25°C). TLCK-treated pancreatic bovine chymotrypsin (Sigma-Aldrich) and fluorescent substrate Suc-Ala-Ala-Pro-Phe-AMC (Km = 58 μM) were used in Tris buffer (50 mM Tris, 20 mM CaCl2) at pH 8.3 (25°C). Neutrophil Elastase (recombinant neutrophil elastase, Enzo LifeSciences) and fluorogenic substrate Suc-Ala-Ala-Pro-Val-AMC (Km = 500 μM) were used in Tris buffer (50 mM Tris, 120 mM NaCl) at pH 8.0 (25°C).

Test [2] deals with β-tryptase (recombinant tryptase β-2) (Homo sapiens, UniProt P20231). The description is as above. The conditions noted are these: read-out: β-tryptase IC50; desthiobiotin probes; 15 min preincubation at 37°C; mean ± SD; tested form: TFA. It counts as biochemical. The method, then:
as §1, §2, §3

Test [3] has as its target uPA (recombinant urokinase plasminogen activator) (Homo sapiens, UniProt P00749). Described as above. In kind it is biochemical. To be noted: read-out: uPA IC50; desthiobiotin probes; 15 min preincubation at 37°C; mean ± SD; tested form: TFA. Here is the method: as §1, §2, §3
The target of test [4] is Thrombin (recombinant thrombin) (Homo sapiens, UniProt P00734). Described as above. The conditions noted are these: read-out: Thrombin IC50; desthiobiotin probes; 15 min preincubation at 37°C; mean ± SD; tested form: TFA. In kind it is biochemical. Here is the method:
as §1, §2, §3

The target in test [5] is TLCK-treated pancreatic bovine chymotrypsin (Bos taurus, UniProt P00766). The description is as above. In kind it is biochemical. The conditions noted are these: read-out: ChTryp IC50; desthiobiotin probes; 15 min preincubation at 37°C; mean ± SD; tested form: TFA. Here is the method:
as §1, §2, §3

Test [6] concerns the target Trypsin-3 (recombinant trypsin-3) (Homo sapiens, UniProt P35030). The test is described as above. To be noted: read-out: Trypsin-3 IC50; desthiobiotin probes; 15 min preincubation at 37°C; mean ± SD; tested form: TFA. In kind it is biochemical. The method, then: as §1, §2, §3
For another test, the target named is β-tryptase (Homo sapiens, UniProt P20231). Nature of the test: Labeling and detection of recombinant proteases (SDS-PAGE blot, NeutrAvidin-HRP). The conditions noted are these: 1 µM ABP, 100 ng protease, 30 min 37°C, denaturing SDS-PAGE blot; tested form: TFA. It counts as binding. The method, then: Recombinant proteases (100 ng) were labeled with 1 µM ABP in reaction buffer in a final volume of 40 µL for 30 min at 37°C. After the addition of 4X Laemmli buffer (Bio-Rad, GmbH) supplemented with Bond-Breaker Tris (2-CarboxyEthyl)Phosphine (TCEP) Solution (Thermo Scientific, United States), the samples were heated at 95°C for 5 min and loaded into 4%–20% Mini-Protean TGX precast gels (Bio-Rad, GmbH). After electrophoresis, the proteins were blotted onto nitrocellulose membranes using the Trans-Blot Transfer Turbo System (Bio-Rad). Membranes were incubated with NeutrAvidin-HRP (1:50,000), and bands were visualized with ECL Select Western Blot Detection Reagent (GE Healthcare Life Sciences) by chemiluminescence (Chemidoc XRS; Bio-Rad). The molecular weight of each band was determined with the Image Lab Software v5 (Bio-Rad).
To further characterize the newly synthesized compounds and their potential to be used as ABPs, nine desthiobiotin probes were used for the labeling and detection of recombinant proteases. The arginine (45b–46b) and the proline-lysine (58b) desthiobiotin probes were used as reference compounds. Whereas the benzyl guanidine (50b, 52b, 54b) and phenyl guanidine probes (55b–57b) were used to determine whether the mechanism of inhibition (reversible or irreversible) is an obstacle to visualize the proteases. […]

Consider `C[C@@H]1NC(=O)N[C@@H]1CCCCCC(=O)NCCOCCOCCOCCn1cc(CCCC(=O)N2CCCC2C(=O)NC(CCCCN)P(=O)(Oc2ccccc2)Oc2ccccc2)nn1` (stereo partly shown), for which the IC50 was 2.9 µM in test [1]; 6.41 µM in test [2]; 6.51 µM in test [3]; 0.16 µM in test [4]; over 10 µM in test [5]; 0.16 µM in test [6]. Moreover, at β-tryptase, the “labeling of recombinant β-tryptase” value is recorded as “not good ABP candidates”.

One may read the IC50 as the concentration that gives 50% inhibition.
